doi:10.1101/2021.11.05.463553
Where two headings read alike, the source gives them in different places. These are yes or no findings as the source states them, for the method shown. In cells and extracts the contact can be indirect. Some binding calls cover weakened binding; strength is not graded here. For some assays here: Tags and fused reporters may be left off the sequences shown.

Sequences of proteins named here, by UniProt entry; tags and fusion partners are left off.
UniProt Q9UM11, whole entry: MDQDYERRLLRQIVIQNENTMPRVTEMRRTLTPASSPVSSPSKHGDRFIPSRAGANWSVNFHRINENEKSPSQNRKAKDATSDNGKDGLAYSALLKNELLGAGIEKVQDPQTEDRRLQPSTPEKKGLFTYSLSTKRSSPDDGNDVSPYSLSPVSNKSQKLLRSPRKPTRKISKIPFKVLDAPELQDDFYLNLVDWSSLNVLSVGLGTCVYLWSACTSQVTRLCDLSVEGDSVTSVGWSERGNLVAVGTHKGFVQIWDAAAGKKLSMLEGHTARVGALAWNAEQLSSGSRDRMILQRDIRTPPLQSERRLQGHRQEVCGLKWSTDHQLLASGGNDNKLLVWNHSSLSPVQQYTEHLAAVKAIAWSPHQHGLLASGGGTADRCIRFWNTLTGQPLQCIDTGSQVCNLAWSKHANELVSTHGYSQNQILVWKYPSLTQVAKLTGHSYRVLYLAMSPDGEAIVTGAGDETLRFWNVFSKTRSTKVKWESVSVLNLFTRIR

Columns and labels:
Assay in all cases: co-IP
EGFP-Cdh1 = EGFP-Cdh1 (UniProt Q9UM11)
[1] = target: HPV16 E7, endogenous in CaSki cells (human papillomavirus 16 (integrated in CaSki)) (UniProt P03129)
[2] = target: Myc-E7 (full length, wild type HPV16 E7) (human papillomavirus 16 (HPV16)) (UniProt P03129)
[3] = target: Myc-E7 p24Gly (human papillomavirus 16 (HPV16)) (UniProt P03129)
Flag-Cdh1 (wild type) [4] = target: Flag-Cdh1 (wild type) (UniProt Q9UM11)
Flag-Cdh1 (wild type) [5] = target: Flag-Cdh1 (wild type) (UniProt Q9UM11); remark: listed apart in the source
[6] = target: Cdh1, endogenous in CaSki cells (human (endogenous in CaSki)) (UniProt Q9UM11)

DsRED-E7 (1-15aa) (from UniProt P03129 1-15) (domain or fragment)
binding (EGFP-Cdh1): binds weakly

Cdh1, endogenous in CaSki cells (from UniProt Q9UM11 1-496)
binding [1]: binds

Flag-Cdh1 (wild type) (from UniProt Q9UM11-2 1-493)
binding [2]: binds
binding [3]: no binding

Myc-E7 (full length, wild type HPV16 E7) (from UniProt P03129 1-98)
binding (Flag-Cdh1 (wild type) [4]): binds
binding (Flag-Cdh1 (wild type) [5]): binds

DsRED-E7 WT (full length HPV16 E7) (from UniProt P03129 1-98)
binding (EGFP-Cdh1): binds

HPV16 E7, endogenous in CaSki cells (from UniProt P03129 1-98)
binding [6]: binds

DsRED-E7 (16-37aa) (from UniProt P03129 16-37) (domain or fragment)
binding (EGFP-Cdh1): binds weakly

DsRED-E7 (38-98aa) (from UniProt P03129 38-98) (domain or fragment)
binding (EGFP-Cdh1): binds

B1: EGFP-FoxM1 (protein, UniProt Q08050 1-763)
chain: MKTSPRRPLILKRRRLPLPVQNAPSETSEEEPKRSPAQQESNQAEASKEVAESNSCKFPAGIKIINHPTMPNTQVVAIPNNANIHSIITALTAKGKESGSSGPNKFILISCGGAPTQPPGLRPQTQTSYDAKRTEVTLETLGPKPAARDVNLPRPPGALCEQKRETCADGEAAGCTINNSLSNIQWLRKMSSDGLGSRSIKQEMEEKENCHLEQRQVKVEEPSRPSASWQNSVSERPPYSYMAMIQFAINSTERKRMTLKDIYTWIEDHFPYFKHIAKPGWKNSIRHNLSLHDMFVRETSANGKVSFWTIHPSANRYLTLDQVFKPLDPGSPQLPEHLESQQKRPNPELRRNMTIKTELPLGARRKMKPLLPRVSSYLVPIQFPVNQSLVLQPSVKVPLPLAASLMSSELARHSKRVRIAPKVLLAEEGIAPLSSAGPGKEEKLLFGEGFSPLLPVQTIKEEEIQPGEEMPHLARPIKVESPPLEEWPSPAPSFKEESSHSWEDSSQSPTPRPKKSYSGLRSPTRCVSEMLVIQHRERRERSRSRRKQHLLPPCVDEPELLFSEGPSTSRWAAELPFPADSSDPASQLSYSQEVGGPFKTPIKETLPISSTPSKSVLPRTPESWRLTPPAKVGGLDFSPVQTSQGASDPLPDPLGLMDLSTTPLQSAPPLESPQRLLSSEPLDLISVPFGNSSPSDIDVPKPGSPEPQVSGLAANRSLTEGLVLDTMNDSLSKILLDISFPGLDEDPLGPDNINWSQFIPELQ
binding (Flag-Cdh1 (wild type) [5]): binds
